Data source: PubChem BioAssay AID1159578 (Peter MacCallum Cancer Centre, 2015)

Screen: 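Genome-wide hunt for genes controlling movement of lymphatic endothelial cells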 (primary screen)
System: human lymphatic endothelial cells
Knock-down reagent: siRNA pool against human genes, 40 nM
Time to read-out: 48 h after transfection
Read-out: 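High-content imaging of dye-stained cells in a scratch assay measures filled wound area and nuclei per well; duplicate means given as ratio to mock and robust z-score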
Scale: migration robust z-score: higher = faster migration into the scratch; migration relative to mock: higher = more scratch area covered than mock; nuclei per well: higher = more cells in the well
Call rule: 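Migration changed when robust z exceeds 2 or falls below -2 and mean nuclei number is at least 3300; otherwise not called changed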
Calls: active = migration changed; inactive = no migration change, or too few cells
Shown is a random part of about 18,000 reagents tested. Of all reagents, about 1,030 (5.7%) are marked active. 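Inactive calls also include pools with fewer than 3300 nuclei, whose migration was not assessed.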 Raw values are not corrected between plates.

| Gene | migration robust z-score | migration class with cell-count check | migration relative to mock | nuclei per well, duplicate mean | activity call |
| --- | --- | --- | --- | --- | --- |
| TSGA13 (testis specific 13) | 0.56 | migration z between -2 and 2; enough cells | 1.03 | 6562 | inactive |
| SPRR3 (small proline rich protein 3) | 0.44 | migration z between -2 and 2; enough cells | 1 | 6849 | inactive |
| RAB9B (RAB9B, member RAS oncogene family) | -0.1 | migration z between -2 and 2; enough cells | 0.78 | 5516 | inactive |
| MAP2K5 (mitogen-activated protein kinase kinase 5) | 0.52 | migration z between -2 and 2; enough cells | 0.9 | 5672 | inactive |
| PIP4P1 (phosphatidylinositol-4,5-bisphosphate 4-phosphatase 1) | -1.82 | migration z between -2 and 2; enough cells | 0.42 | 5844 | inactive |
| TEKT4 (tektin 4) | -0.56 | migration z between -2 and 2; enough cells | 0.74 | 5295 | inactive |
| APOBEC3G (apolipoprotein B mRNA editing enzyme catalytic subunit 3G) | -0.03 | migration z between -2 and 2; enough cells | 0.8 | 4107 | inactive |
| LIPI (lipase I) | 1.38 | migration z between -2 and 2; enough cells | 1.07 | 5540 | inactive |
| GNL1 (G protein nucleolar 1) | -0.62 | migration z between -2 and 2; enough cells | 0.72 | 5562 | inactive |
| TTLL10 (tubulin tyrosine ligase like 10) | -0.28 | migration z between -2 and 2; enough cells | 0.82 | 5218 | inactive |
| VMA12 (vacuolar ATPase assembly factor VMA12) | -0.5 | migration z between -2 and 2; enough cells | 0.76 | 4934 | inactive |
| RBM4 (RNA binding motif protein 4) | 0.84 | migration z between -2 and 2; enough cells | 1.1 | 5800 | inactive |
| PAXX (PAXX non-homologous end joining factor) | 1.2 | migration z between -2 and 2; enough cells | 1.19 | 7226 | inactive |
| LIPG (lipase G, endothelial type) | -0.9 | migration z between -2 and 2; enough cells | 0.63 | 7248 | inactive |
| ABCA1 (ATP binding cassette subfamily A member 1) | -0.75 | migration z between -2 and 2; enough cells | 0.66 | 6274 | inactive |
| DSCC1 | -0.47 | migration z between -2 and 2; enough cells | 0.76 | 4934 | inactive |
| PITPNM3 (PITPNM family member 3) | -1.12 | under 3300 nuclei; migration not judged | 0.59 | 2999 | inactive |
| CRYZ (crystallin zeta) | -0.78 | migration z between -2 and 2; enough cells | 0.66 | 6210 | inactive |
| NOB1 (NIN1 (RPN12) binding protein 1 homolog) | 0.15 | migration z between -2 and 2; enough cells | 0.92 | 6258 | inactive |
| IMMP2L (inner mitochondrial membrane peptidase subunit 2) | 0.44 | migration z between -2 and 2; enough cells | 0.89 | 6076 | inactive |
| CTNNA3 (catenin alpha 3) | -0.9 | migration z between -2 and 2; enough cells | 0.65 | 6066 | inactive |
| ZNF417 (zinc finger protein 417) | -1.88 | migration z between -2 and 2; enough cells | 0.4 | 6272 | inactive |
| LPIN3 (lipin 3) | 0.36 | migration z between -2 and 2; enough cells | 0.98 | 5502 | inactive |

Just “nuclei per well, duplicate mean”, for 4 of the entries above:
RAB9B (RAB9B, member RAS oncogene family): 5516
MAP2K5 (mitogen-activated protein kinase kinase 5): 5672
PIP4P1 (phosphatidylinositol-4,5-bisphosphate 4-phosphatase 1): 5844
TEKT4 (tektin 4): 5295
